These are yes or no findings as the source states them, for the method shown. In cells and extracts the contact can be indirect. A result given as binding can be weak or reduced; the word gives no strength.
Molecular target: Toxoplasma gondii-derived dense granule protein 16 (TgGRA16), HA-tagged (Toxoplasma gondii) (UniProt Q1JSN3)
Assay: co-IP; HA-Tag Ab on protein A/G-plus agarose beads added to 0.5 mg M-PER extract of GRA16-stable HepG2 or Hep3B cells, 4 h at 4°C; Western blot with HAUSP Ab

Amino acid sequences for entries named in this document (tags omitted).
UniProt Q93009: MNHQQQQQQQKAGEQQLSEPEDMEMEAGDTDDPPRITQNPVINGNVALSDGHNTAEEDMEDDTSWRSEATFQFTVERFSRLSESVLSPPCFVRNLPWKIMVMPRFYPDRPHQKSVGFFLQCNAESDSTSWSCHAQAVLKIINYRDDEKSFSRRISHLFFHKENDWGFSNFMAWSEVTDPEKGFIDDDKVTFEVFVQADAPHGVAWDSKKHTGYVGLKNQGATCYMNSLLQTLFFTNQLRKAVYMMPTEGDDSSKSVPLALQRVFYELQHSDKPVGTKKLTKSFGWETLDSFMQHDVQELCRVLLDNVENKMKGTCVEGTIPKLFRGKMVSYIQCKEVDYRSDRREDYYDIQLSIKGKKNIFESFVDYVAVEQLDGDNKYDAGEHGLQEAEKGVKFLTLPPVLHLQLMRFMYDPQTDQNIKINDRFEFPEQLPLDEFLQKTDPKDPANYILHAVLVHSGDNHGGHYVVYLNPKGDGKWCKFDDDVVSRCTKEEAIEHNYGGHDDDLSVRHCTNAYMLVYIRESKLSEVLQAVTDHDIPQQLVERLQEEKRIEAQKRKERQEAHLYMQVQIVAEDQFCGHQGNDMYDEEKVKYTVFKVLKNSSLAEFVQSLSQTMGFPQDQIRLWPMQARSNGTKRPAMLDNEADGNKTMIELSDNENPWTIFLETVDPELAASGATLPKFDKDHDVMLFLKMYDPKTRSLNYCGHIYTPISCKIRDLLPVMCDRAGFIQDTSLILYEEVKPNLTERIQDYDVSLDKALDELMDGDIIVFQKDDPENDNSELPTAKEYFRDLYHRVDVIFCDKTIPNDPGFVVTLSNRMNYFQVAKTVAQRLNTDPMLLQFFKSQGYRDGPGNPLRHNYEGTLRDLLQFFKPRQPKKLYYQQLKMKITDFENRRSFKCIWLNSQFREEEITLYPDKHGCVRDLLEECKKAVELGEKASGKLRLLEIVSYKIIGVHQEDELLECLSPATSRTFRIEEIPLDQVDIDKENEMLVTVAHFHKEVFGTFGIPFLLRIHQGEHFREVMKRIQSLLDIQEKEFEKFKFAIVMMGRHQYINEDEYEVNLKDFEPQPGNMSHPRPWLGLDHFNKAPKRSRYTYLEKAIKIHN

For “Ubiquitin-specific peptidase 7 / herpes virus-associated ubiquitin-specific protease (USP7/HAUSP) (from UniProt Q93009 1-1102) (enzyme)”, the binding was “binds”.

Source: paper PMC6484329
